The list shows a part of the results, in another mix than the full data.
compound: COC(=O)C#Cc1ccccc1 [methyl 3-phenylpropiolate]; assay: log2 ratio of iodoacetamide-alkyne labeling of the cysteine site, DMSO over compound (competition); higher = stronger covalent engagement of the cysteine by the compound, active = 1 or more; details: 500 µM; treatment time 1 h; system: HEK293T cell lysate
Method in brief: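 HEK293T lysate (2 mg/mL) was treated with DMSO or electrophile (500 µM, 1 h, ambient temperature), then iodoacetamide alkyne (1 h), clicked to sCIP-TMT reagents, pooled, trypsin-digested overnight at 37 °C, streptavidin-enriched and acid-eluted. Peptides were run on Orbitrap Eclipse LC-MS/MS with FAIMS and quantified in FragPipe. The log2 competition ratio per cysteine is mean control-channel over mean compound-channel reporter intensity. Duplicate channels and three replicates were used, and cysteines quantified in only one replicate were excluded.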

By UniProt entry, the sequences of proteins in these tests, tags left out. Where a name states a change or a piece, a line headed by the entry shows the natural chain unless it says otherwise.
UniProt P11310: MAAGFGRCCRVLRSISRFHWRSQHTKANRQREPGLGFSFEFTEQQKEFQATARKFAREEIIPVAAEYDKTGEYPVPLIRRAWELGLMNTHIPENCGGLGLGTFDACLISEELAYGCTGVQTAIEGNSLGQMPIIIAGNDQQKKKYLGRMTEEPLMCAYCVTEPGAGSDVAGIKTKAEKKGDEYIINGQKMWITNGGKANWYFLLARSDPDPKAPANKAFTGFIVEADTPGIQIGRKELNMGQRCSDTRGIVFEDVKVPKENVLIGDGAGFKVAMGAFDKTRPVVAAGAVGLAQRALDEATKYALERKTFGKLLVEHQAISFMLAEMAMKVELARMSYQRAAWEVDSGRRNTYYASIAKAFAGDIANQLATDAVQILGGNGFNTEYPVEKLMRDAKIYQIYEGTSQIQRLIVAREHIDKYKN
UniProt P13489: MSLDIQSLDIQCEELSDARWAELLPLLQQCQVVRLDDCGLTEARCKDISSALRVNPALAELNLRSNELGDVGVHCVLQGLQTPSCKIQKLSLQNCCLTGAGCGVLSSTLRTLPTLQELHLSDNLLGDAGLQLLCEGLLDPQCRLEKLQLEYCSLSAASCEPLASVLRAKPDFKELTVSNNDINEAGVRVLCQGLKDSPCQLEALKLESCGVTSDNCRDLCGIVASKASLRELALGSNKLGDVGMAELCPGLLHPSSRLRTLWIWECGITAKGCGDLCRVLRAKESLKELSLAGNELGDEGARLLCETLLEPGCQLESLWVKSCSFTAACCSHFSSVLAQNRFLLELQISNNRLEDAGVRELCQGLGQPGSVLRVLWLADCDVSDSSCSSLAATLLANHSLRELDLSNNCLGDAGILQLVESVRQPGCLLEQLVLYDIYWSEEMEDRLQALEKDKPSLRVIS
UniProt P12004, whole entry, looked up: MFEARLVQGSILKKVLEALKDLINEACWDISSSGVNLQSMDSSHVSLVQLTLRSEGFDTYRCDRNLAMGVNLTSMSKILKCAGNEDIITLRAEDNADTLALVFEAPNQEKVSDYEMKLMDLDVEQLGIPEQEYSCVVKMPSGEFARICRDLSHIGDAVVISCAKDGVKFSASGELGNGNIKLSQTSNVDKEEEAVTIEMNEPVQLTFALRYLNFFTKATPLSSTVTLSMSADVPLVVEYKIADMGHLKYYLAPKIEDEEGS
UniProt P13797: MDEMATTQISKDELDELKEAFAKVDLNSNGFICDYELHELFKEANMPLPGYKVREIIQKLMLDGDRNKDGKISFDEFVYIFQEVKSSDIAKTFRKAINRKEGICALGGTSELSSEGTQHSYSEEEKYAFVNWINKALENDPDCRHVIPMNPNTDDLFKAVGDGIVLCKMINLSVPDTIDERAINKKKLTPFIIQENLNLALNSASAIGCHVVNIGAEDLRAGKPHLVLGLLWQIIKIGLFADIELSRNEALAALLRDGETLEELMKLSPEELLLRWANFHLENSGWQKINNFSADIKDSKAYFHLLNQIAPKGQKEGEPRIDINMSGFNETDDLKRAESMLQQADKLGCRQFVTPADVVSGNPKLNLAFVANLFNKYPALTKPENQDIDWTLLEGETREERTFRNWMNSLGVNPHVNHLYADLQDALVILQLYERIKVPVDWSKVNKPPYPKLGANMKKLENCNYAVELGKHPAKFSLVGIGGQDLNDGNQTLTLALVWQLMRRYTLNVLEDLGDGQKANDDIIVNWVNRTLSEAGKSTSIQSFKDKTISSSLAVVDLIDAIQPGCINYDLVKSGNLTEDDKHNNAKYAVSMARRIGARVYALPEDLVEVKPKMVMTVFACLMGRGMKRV
UniProt P14866: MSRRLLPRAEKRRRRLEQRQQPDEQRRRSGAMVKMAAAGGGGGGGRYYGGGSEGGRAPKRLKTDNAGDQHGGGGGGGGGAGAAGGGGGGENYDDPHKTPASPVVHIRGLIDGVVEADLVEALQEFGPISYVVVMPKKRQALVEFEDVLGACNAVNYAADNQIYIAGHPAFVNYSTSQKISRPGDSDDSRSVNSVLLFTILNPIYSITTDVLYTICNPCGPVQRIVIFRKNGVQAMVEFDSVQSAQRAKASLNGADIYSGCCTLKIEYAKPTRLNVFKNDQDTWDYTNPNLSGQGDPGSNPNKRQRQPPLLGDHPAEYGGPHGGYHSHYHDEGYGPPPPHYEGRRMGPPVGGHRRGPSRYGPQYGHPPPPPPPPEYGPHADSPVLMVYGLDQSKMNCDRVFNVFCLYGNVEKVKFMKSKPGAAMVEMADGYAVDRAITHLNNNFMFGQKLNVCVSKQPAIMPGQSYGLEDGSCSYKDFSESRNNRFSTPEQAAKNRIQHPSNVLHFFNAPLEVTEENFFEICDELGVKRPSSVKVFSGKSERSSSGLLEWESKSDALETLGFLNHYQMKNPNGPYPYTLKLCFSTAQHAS
UniProt P13056: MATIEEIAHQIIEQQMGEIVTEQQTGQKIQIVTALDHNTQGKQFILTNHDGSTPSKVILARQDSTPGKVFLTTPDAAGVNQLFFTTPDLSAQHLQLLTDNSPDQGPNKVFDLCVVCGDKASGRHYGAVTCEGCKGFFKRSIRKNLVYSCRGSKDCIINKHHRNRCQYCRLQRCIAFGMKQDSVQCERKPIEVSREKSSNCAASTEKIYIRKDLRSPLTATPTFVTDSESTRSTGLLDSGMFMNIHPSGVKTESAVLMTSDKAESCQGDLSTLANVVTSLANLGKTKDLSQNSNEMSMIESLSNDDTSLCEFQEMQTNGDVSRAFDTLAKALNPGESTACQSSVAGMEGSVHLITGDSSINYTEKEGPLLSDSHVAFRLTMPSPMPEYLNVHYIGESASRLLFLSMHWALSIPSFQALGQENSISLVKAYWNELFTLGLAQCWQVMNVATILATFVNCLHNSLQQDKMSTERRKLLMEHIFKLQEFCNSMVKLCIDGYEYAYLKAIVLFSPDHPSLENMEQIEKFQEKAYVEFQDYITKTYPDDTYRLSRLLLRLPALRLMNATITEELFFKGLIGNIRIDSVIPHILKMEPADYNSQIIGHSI
UniProt P11413, whole entry, looked up: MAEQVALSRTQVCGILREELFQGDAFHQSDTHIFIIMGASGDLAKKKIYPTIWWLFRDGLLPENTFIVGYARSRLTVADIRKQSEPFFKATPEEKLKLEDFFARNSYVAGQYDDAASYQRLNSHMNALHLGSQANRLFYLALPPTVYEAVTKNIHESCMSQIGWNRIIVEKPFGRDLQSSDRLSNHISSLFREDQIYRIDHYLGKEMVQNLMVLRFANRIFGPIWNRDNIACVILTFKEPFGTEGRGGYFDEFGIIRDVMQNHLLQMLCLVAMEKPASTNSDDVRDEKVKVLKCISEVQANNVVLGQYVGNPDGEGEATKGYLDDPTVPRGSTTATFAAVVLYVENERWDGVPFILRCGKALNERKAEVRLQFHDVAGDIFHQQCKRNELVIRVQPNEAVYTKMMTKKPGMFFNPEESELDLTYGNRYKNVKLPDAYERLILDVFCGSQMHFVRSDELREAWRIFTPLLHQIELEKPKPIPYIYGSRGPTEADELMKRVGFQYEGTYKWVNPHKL
UniProt P11216: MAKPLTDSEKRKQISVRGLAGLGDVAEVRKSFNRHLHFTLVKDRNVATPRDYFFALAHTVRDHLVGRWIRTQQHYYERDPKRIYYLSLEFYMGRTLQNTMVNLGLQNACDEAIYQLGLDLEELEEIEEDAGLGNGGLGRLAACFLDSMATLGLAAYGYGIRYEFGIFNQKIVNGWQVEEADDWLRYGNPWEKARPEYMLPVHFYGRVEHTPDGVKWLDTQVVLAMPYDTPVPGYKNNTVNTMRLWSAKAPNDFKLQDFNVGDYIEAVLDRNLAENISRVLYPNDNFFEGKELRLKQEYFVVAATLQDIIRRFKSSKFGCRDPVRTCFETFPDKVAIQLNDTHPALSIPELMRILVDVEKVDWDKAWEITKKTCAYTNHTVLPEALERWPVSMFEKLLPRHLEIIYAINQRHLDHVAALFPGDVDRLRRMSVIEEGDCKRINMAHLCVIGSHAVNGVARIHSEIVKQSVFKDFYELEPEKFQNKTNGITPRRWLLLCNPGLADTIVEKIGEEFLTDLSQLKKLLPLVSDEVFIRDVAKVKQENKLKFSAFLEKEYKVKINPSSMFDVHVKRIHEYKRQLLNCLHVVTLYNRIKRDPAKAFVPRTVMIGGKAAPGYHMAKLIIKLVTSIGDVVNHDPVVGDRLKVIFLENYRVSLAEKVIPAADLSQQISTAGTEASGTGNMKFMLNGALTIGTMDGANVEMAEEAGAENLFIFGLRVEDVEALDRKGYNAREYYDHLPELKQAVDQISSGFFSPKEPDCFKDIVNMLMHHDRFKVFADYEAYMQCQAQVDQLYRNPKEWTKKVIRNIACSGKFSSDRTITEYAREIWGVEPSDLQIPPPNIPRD
UniProt P08047, whole entry, looked up: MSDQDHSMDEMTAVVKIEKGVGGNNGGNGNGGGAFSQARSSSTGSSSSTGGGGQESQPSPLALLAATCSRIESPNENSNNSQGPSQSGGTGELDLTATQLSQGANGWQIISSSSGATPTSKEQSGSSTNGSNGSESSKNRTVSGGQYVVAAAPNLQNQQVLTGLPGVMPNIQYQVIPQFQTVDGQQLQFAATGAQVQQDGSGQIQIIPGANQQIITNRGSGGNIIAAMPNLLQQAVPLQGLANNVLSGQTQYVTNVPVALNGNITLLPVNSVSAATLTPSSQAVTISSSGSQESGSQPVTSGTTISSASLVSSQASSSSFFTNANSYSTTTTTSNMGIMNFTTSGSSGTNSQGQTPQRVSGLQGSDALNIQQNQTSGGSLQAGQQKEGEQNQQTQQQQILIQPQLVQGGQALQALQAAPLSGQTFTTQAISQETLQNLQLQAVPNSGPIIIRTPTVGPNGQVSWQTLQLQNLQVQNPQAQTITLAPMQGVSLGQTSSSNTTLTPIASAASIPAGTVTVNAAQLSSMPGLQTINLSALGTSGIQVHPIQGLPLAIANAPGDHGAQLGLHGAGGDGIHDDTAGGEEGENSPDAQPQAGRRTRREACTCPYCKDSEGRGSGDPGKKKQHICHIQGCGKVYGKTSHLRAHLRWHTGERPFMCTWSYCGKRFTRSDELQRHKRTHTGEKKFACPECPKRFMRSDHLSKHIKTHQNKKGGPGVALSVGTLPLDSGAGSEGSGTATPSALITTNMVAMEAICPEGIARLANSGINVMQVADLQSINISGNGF
UniProt P11802: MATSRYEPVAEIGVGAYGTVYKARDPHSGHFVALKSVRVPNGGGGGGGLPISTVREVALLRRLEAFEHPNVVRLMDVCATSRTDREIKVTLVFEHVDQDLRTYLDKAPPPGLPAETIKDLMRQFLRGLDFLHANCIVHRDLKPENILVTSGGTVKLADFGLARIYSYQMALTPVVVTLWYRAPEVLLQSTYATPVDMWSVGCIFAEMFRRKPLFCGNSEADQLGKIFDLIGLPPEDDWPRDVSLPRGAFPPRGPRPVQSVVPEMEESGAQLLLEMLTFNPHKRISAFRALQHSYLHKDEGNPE
UniProt P17706: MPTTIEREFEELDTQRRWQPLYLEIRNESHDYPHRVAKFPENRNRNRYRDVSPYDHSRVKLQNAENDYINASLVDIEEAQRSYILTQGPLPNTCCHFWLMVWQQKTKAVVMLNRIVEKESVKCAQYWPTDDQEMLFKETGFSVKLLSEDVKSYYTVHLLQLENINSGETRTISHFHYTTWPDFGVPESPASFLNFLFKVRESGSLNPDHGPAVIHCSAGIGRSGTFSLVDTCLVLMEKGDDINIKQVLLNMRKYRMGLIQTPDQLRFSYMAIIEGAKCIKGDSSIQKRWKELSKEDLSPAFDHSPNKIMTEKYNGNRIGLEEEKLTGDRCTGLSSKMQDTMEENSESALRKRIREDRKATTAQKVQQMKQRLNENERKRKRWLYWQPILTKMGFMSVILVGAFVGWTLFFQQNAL
UniProt P0DMV8, whole entry, looked up: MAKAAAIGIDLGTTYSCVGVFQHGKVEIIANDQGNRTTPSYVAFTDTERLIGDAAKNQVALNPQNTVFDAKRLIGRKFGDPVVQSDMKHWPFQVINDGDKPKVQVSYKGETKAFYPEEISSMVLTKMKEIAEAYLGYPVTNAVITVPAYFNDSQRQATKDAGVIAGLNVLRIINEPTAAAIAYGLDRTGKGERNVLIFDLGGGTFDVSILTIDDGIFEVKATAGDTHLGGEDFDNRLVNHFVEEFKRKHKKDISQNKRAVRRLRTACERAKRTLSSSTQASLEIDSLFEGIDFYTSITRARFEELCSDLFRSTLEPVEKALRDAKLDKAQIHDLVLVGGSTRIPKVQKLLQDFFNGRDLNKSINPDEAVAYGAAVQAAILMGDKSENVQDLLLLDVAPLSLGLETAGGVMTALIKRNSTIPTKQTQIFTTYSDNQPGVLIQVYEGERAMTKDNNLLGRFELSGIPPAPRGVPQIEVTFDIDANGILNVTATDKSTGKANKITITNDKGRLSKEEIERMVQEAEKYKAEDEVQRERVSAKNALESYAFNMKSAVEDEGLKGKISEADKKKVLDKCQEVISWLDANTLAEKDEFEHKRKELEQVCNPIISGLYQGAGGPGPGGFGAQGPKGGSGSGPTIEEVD

log2 ratio of iodoacetamide-alkyne labeling, active:
HSPD1 C442 (UniProt P10809) 1.2

log2 ratio of iodoacetamide-alkyne labeling, inactive:
ACADM C156 (UniProt P11310) 0.666
MTHFD1 C918 (UniProt P11586) 0.134
DSP C1069 (UniProt P15924) 0.596
MTHFD2 C145 (UniProt P13995) 0.057
RNH1 C12 (UniProt P13489) 0.147
RNH1 C248 (UniProt P13489) 0.149
PCNA C62 (UniProt P12004) 0.0598
PLS3 C566 (UniProt P13797) 0.132
RPS2 C222 (UniProt P15880) 0.255
HNRNPL C151 (UniProt P14866) 0.0208
NR2C1 C265 (UniProt P13056) 0.201
PLS3 C463 (UniProt P13797) 0.42
G6PD C232 (UniProt P11413) 0.0394
PYGB C496 (UniProt P11216) -0.118
LYN C468 (UniProt P07948) -0.157
SP1 C68 (UniProt P08047) 0.526
G6PD C158 (UniProt P11413) -0.00254
EPRS C92 (UniProt P07814) 0.571
PLS3 C104 (UniProt P13797) 0.669
ESD C243 (UniProt P10768) 0.239
CDK4 C135 (UniProt P11802) 0.117
CYC1 C271 (UniProt P08574) 0.0519
EEF2 C591 (UniProt P13639) 0.128
CYC1 C219 (UniProt P08574) 0.0599
PTPN2 C330 (UniProt P17706) 0.608
PYGB C326 (UniProt P11216) 0.332
HNRNPL C261 (UniProt P14866) -0.314
CDK4 C215 (UniProt P11802) 0.304
G6PD C385 (UniProt P11413) 0.327
RPS2 C188 (UniProt P15880) 0.087
HNRNPL C452 (UniProt P14866) 0.0699
UniProt P0DMV8_C603 0.0788
DLD C484 (UniProt P09622) 0.167
RNH1 C75 (UniProt P13489) 0.145
CKMT1A C62 (UniProt P12532) 0.126
RNH1 C96 (UniProt P13489) 0.119
